Experimental findings from publication PMC10465472 are described below.

The chains behind the UniProt entries cited, without tags or fusion partners. Where a name states a change or a piece, a line headed by the entry shows the natural chain unless it says otherwise. Residues count along the entry.
UniProt P58397: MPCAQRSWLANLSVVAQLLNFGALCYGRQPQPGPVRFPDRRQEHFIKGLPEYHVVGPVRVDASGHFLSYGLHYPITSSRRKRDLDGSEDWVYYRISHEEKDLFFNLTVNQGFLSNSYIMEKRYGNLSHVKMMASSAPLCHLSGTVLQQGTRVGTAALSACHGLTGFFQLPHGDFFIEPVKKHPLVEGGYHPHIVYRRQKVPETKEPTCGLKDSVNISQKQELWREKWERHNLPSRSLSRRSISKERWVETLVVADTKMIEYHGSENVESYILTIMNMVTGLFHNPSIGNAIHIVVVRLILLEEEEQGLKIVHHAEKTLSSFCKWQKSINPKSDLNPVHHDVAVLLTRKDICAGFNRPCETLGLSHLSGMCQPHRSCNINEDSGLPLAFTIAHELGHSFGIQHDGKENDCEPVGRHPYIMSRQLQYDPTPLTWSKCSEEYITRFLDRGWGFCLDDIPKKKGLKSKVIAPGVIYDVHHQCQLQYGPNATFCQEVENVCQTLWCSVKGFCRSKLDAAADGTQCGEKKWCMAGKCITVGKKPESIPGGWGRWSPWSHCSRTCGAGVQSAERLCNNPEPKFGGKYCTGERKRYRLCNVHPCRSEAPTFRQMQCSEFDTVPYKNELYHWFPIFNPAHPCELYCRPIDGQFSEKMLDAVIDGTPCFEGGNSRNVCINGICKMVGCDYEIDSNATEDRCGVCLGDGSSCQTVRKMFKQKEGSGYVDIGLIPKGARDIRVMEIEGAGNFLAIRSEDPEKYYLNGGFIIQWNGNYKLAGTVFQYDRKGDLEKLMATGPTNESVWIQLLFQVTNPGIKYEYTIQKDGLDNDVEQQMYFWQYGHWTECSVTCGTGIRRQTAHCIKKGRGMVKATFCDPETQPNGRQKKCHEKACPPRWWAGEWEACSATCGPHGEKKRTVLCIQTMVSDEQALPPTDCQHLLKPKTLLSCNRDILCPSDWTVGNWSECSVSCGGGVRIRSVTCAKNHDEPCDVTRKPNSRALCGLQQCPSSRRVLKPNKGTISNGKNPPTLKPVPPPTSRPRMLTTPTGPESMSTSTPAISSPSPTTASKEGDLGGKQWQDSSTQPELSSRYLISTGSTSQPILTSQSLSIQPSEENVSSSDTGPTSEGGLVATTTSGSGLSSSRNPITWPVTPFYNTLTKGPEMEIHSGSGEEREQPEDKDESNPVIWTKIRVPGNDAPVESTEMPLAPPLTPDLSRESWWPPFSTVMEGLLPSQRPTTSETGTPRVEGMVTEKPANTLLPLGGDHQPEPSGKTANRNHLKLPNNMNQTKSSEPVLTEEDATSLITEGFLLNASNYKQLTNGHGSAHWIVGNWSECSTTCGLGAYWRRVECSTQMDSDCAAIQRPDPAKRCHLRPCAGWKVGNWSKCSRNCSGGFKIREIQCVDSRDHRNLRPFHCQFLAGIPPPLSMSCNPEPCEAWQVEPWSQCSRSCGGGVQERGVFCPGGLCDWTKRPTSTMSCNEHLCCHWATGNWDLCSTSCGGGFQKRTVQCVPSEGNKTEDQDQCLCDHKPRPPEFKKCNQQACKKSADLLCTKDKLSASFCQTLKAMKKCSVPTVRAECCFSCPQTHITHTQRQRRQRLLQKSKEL
UniProt P04004, residues 20-478: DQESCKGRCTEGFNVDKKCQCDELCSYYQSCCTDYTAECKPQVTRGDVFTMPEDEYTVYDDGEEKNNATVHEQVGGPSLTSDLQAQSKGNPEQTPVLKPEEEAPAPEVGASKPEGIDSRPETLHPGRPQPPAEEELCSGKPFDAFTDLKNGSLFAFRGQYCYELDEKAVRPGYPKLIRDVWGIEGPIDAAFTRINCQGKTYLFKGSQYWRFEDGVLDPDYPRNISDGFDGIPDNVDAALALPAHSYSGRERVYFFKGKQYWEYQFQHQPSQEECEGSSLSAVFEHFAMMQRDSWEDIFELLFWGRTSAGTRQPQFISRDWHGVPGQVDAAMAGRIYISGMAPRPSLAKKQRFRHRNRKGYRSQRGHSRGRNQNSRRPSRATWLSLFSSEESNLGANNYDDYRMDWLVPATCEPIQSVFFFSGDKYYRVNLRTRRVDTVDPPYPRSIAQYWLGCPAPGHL
UniProt P20908, residues 38-1605: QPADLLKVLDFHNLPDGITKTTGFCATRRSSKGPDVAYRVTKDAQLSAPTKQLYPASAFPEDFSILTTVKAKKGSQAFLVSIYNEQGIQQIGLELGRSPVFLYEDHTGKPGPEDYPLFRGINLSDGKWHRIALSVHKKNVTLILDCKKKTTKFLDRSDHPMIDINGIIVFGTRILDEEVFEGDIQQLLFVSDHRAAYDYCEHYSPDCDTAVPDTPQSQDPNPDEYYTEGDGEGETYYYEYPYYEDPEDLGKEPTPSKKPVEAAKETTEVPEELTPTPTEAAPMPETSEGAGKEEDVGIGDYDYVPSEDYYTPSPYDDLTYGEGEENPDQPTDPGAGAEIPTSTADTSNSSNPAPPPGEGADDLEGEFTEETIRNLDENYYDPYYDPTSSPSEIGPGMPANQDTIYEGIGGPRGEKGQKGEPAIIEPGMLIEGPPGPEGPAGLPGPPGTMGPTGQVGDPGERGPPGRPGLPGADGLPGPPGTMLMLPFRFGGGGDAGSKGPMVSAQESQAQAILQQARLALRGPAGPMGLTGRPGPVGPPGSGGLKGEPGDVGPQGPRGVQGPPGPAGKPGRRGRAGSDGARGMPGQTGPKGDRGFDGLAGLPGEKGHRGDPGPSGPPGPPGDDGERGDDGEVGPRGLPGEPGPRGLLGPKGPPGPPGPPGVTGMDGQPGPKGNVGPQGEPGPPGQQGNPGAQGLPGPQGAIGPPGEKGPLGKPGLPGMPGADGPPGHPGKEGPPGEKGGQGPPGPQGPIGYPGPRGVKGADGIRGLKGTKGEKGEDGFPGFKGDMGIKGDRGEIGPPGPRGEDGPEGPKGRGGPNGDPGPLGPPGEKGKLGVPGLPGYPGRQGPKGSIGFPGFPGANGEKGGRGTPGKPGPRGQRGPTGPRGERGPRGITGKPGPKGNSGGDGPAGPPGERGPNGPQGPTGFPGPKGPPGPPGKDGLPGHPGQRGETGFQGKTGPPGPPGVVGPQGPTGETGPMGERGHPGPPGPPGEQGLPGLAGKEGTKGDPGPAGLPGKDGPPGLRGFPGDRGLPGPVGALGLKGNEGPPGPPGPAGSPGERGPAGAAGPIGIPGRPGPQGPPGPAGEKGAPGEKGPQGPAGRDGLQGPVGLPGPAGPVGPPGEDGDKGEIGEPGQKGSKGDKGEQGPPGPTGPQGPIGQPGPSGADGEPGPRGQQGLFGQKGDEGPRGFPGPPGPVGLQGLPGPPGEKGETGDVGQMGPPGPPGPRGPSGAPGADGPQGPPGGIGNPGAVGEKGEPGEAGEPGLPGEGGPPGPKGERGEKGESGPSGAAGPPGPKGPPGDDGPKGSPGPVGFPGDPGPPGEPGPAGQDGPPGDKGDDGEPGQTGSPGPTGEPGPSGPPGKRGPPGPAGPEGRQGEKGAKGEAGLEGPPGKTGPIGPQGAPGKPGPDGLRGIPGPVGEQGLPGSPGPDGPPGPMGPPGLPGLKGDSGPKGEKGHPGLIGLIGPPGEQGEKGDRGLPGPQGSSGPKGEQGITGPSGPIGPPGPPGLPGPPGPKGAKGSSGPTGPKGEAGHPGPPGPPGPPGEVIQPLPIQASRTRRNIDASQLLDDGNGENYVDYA

In the assay the target is ADAMTS12 with HA label (overexpressed from recombinant plasmid pCMV-HA-C-ADAMTS12) (human) (UniProt P58397). Nature of the assay: affinity purification with mass spectrometry; co-immunoprecipitation combined with mass spectrometry from HeLa cells transfected with the ADAMTS12 recombinant plasmid, compared with a second group of cells (Venn diagram); precipitating antibody not stated.

No constants are given. Whether binding was seen depends on the method and setting. Binding seen in cells or lysates may run through a third protein. Here binding means that the protein was enriched with, or labelled near, the bait; the list need not be complete.

Consider VTN (from UniProt P04004 20-478), for which the binding result is “binds”.

On to COL5A1 (from UniProt P20908 38-1605), for which the binding result was “binds”.
